Library screening results

Results are given as percent effect. The record does not define 0% and 100%; most values in the screen are far below 50% and negative numbers occur (in some assays of this library far below -100). Compounds were drawn at random from those tested, without regard to their results. Two or more numbers in one place are separate tests of the same structure; such repeats can differ widely.

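Viability assay of Plasmodium falciparum sporozoites; the read-out is not stated. The concentration is filed as 10 mM, unlikely as a test dose, so the dose is not known. Direction is inferred from retests: higher values go with lower viability. Strong results were mostly tested again. About 34,000 compounds were tested under these conditions; 0.84% (about 280) showed 50% or more at least once.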

| SMILES | Percent Effect |
|---|---|
| `O=C(NC1CCCC1)C1Cc2nc(-c3ccsc3)sc2N1CC1CC1` (stereo not drawn) | 9.544 & 5.829 & 5.902 |
| `Cc1c[nH]nc1C1CCN(C(=O)C2CCCC2)C1` (stereo not drawn) | -9.116 |
| `COc1ccc2c(c1)OCC(Cc1cc(C(=O)N3CCCC3)ccn1)C2` (stereo not drawn) | -6.983 |
| `c1nc(N2CCCC2)cnc1C1CCNCC1` | 7.315 |
| `[H][C@@]12C[C@@H](OCc3ccccc3)C[C@]1([H])CN(Cc1cncnc1)C2` | -0.7179 |
| `CCN(C)C(C(=O)Nc1ccc2c(c1)CCC(=O)N2)c1ccccc1` (stereo not drawn) | -18.8 |
| `CCNC(=O)[C@@H]1C[C@H](NC(=O)c2ccccc2C#N)CN1CCCSC` | -2.713 |
| `CC(C)(C)OC(=O)NC1(c2noc(-c3ccco3)n2)CCC1` | -3.226 |
| `CC(C)c1nnc(NC(=O)NC2CCN(Cc3ccccc3)C2)s1` (stereo not drawn) | 14.49 |
| `Cc1nc(N)ncc1C(=O)N1CCCC1(C)C(=O)N(C)C` (stereo not drawn) | 1.705 |
| `COc1ccc(CC(=O)N2CCN(Cc3ccco3)C[C@@H]2C)cc1` | 1.813 |
| `Cc1cc(C)n(NC(=O)c2ccccc2F)c(=O)c1` | 23.06 |
| `Cc1cc(C)c(CNc2ncnc3c2cnn3C)c(=O)[nH]1` | -8.324 |
| `Cc1nc(C)n(C2CCCN(C(=O)c3cccc4cn[nH]c34)C2)n1` (stereo not drawn) | -0.223 |
| `CCO[C@H]1CO[C@@]2(CCCN(S(=O)(=O)c3ccccc3)C2)C1` | -2.349 |
| `Cc1nc(C(=O)N2CCCC(c3cc(C(F)(F)F)[nH]n3)C2)c[nH]1` (stereo not drawn) | 9.443 |
| `Cc1ncc(-c2ccnc(N[C@@H](C)CO)n2)c(C2CCCCC2)n1` | 12.28 |
| `O=C(O)C(F)(F)F.[H][C@@]12CN(CCC(C)C)C[C@]1([H])OCCN2c1ncc(F)cn1` | 10.96 |
| `CCn1nc(C)c(CNC(=O)c2cn(CC3CCCO3)nn2)c1C` (stereo not drawn) | -3.219 |
| `O=C(O)C(F)(F)F.[H][C@@]12COC[C@]1(COc1cccnc1)CN(C(=O)Cc1ccccc1F)C2` | -15.54 |
| `O=C1NC2(CCCN(C(=O)CCn3cccn3)C2)Oc2ccccc21` (stereo not drawn) | -3.988 |
| `Cn1ncc2c1C(COCC1CC1)CN(Cc1nccs1)C2` (stereo not drawn) | 4.358 |
| `CCOCc1nn(C)c2c1CN(CCO)CC2` | -13.31 |
| `Cc1cccc(OCCC(=O)N2CCCN(CC(N)=O)CC2)c1C` | 14.39 |
| `O=C(O)C(F)(F)F.O=C(c1cscn1)N1CCC2(CCN(Cc3nccs3)CC2)C1` | 17.1 |
| `Cc1ccc(C(C)NC(=O)CNCCn2cccn2)cc1C` (stereo not drawn) | -5.595 |
| `CNC(=O)C1CNCCN1C(=O)c1ccc(C(F)(F)F)nc1C.Cl` (stereo not drawn) | 3.147 |
| `[H][C@@]12COC[C@]1([H])[C@@H](OCc1cccnc1)CN2C(=O)c1ccc[nH]1` | -13.98 |
| `CC(=O)Nc1nc(CN2CCCC2Cn2cncn2)cs1` (stereo not drawn) | 17.33 |
| `Cc1nc(C)c(C(=O)NCCNc2ncccc2C#N)s1` | 4.622 |
| `O=C(O)C(F)(F)F.O=C(O)C(F)(F)F.[H][C@@]12COC[C@]1(COc1ccccn1)CN(c1ncccn1)C2` | 6.385 |
| `Cc1nn2c(N3CCC(O)CC3)cc(-c3ccccc3)nc2c1C` | -9.448 |
| `COc1ccc(Br)c(C(=O)NC(CC(=O)O)c2cccs2)c1` (stereo not drawn) | 3.365 |
| `O=C(c1cncc(Br)c1)N1CCC(O)(Cn2ccc3ccncc32)CC1` | -15.05 |
| `O=C(C1CC=CC1)N1CCC2(CCN(Cc3ccccn3)C2=O)C1.O=C(O)C(F)(F)F` (stereo not drawn) | -20.42 |
| `[H][C@@]12CN(C(=O)c3ccncc3)C[C@]1([H])OCCN2CCN1CCCC1` | -15.89 |
| `Cn1nc2c(cc1=O)CN(c1nc3ccccc3s1)CC2` | -54.2 & -44.25 & -4.615 |
| `COc1ncnc(N)c1CNCCc1ccc(-n2cccn2)cc1` | 6.906 & 8.396 |
| `CN1CCN(C2CCN(Cc3cn4ccccc4n3)CC2)C1=O` | 9.602 |
| `CN1CCCC(c2nccnc2-c2cccc(Cl)c2)C1` (stereo not drawn) | 9.943 |
| `COCc1ncn2c1CN(C(=O)c1ccc3ccccc3n1)CC2.O=C(O)C(F)(F)F` | 19.04 |
| `Cc1noc(C)c1-c1nc(N(C)C)ncc1-c1cnccn1` | 7.147 |
| `CCCC(C)C(=O)N1CCC(c2cc(N3CCOCC3)nc(C)n2)CC1` (stereo not drawn) | -8.269 |
| `CN1CCN(C(=O)C2CCN(c3cccnn3)CC2)CC1` | 1.342 |
| `Cc1cc(C)cc(NC(=O)CC2CN(Cc3ccccc3)CCO2)c1` (stereo not drawn) | -4.651 & -1.748 |
| `NC(=O)CN1CCCC(c2nccnc2Oc2cccc(F)c2)C1` (stereo not drawn) | 4.326 |
| `CC(C#N)CNS(=O)(=O)c1ccc(Br)c(F)c1` (stereo not drawn) | 8.487 |
| `Cn1cc(CN2CCc3nc4ccccc4c(=O)n3CC2)cn1` | 4.375 |
| `NC(=O)c1cccc(CCNCc2cnc(C3CCC3)s2)c1` | -4.783 |
| `CSC(C)C(=O)N1CCCN(c2ncccc2C#N)CC1` (stereo not drawn) | 3.626 |
| `CC(C)c1nnc2ccc(N3CCC(C(N)=O)CC3)nn12` | 9.43 |
| `O=c1cc(Cn2cncn2)nc2n1CCCN(Cc1ccoc1)C2` | -15.47 |
| `CC(C)c1nccn1C1CCCN(C(=O)c2cc(C(N)=O)cs2)C1` (stereo not drawn) | 10.13 |
| `CC(OCC1CC1)C(=O)N1CCCN(Cc2nccn2C(C)C)CC1` (stereo not drawn) | -0.3365 |
| `COc1cc(C(=O)N2CCCC2c2noc(C(C)C)n2)on1` (stereo not drawn) | -3.307 |
| `CCS(=O)(=O)NC1CCc2c(ccc(=O)n2CC2CC2)C1` (stereo not drawn) | 10.16 |
| `Cc1noc(C)c1CN1CCC2(CCN(Cc3cccc(F)c3)CC2)C1.O=C(O)C(F)(F)F.O=C(O)C(F)(F)F` | 20.67 |
| `CCC1=NC2(CCC(C(=O)Nc3ccc(C)nc3)CC2)C(=O)N1C` (stereo not drawn) | -11.27 |
| `O=C(Cc1ccc2c(c1)CCC2)N1CCCC(n2cccn2)C1` (stereo not drawn) | -8.686 & -13.4 & -12.04 |
| `Cc1nc[nH]c1CN1CCCC12CCN(c1nc3ccccc3s1)CC2` | 73.34 & 82.13 |
| `Cc1nc(-c2ccccc2)sc1C(=O)NCCNc1ncccn1` | -8.557 |
| `CCn1c(CN2CCCC2)nnc1C1CCN(Cc2cccnc2)CC1` | -8.158 |
| `[H][C@@]12CCN(C(C)=O)C[C@@]1([H])[C@H](C(=O)NCc1ccco1)CCO2` | -9.394 |

The values are deposited in ChEMBL (CHEMBL3988442, “University of Dundee, Small-Polar-MMV Screening Library” (2021)).